Experimental data taken from patent US20080064052A1, “Crystal of a Receptor-Ligand Complex and methods of use” (priority 2006, published 2008).
No constants are given. Whether binding was seen depends on the method and setting. Some binding calls cover weakened binding; strength is not graded here. For some assays here: Tags and fused reporters may be left off the sequences shown.

Amino acid sequences for entries named in this document (tags omitted). A change or cut given only in a name is not applied to a line headed by its entry.
UniProt P54760: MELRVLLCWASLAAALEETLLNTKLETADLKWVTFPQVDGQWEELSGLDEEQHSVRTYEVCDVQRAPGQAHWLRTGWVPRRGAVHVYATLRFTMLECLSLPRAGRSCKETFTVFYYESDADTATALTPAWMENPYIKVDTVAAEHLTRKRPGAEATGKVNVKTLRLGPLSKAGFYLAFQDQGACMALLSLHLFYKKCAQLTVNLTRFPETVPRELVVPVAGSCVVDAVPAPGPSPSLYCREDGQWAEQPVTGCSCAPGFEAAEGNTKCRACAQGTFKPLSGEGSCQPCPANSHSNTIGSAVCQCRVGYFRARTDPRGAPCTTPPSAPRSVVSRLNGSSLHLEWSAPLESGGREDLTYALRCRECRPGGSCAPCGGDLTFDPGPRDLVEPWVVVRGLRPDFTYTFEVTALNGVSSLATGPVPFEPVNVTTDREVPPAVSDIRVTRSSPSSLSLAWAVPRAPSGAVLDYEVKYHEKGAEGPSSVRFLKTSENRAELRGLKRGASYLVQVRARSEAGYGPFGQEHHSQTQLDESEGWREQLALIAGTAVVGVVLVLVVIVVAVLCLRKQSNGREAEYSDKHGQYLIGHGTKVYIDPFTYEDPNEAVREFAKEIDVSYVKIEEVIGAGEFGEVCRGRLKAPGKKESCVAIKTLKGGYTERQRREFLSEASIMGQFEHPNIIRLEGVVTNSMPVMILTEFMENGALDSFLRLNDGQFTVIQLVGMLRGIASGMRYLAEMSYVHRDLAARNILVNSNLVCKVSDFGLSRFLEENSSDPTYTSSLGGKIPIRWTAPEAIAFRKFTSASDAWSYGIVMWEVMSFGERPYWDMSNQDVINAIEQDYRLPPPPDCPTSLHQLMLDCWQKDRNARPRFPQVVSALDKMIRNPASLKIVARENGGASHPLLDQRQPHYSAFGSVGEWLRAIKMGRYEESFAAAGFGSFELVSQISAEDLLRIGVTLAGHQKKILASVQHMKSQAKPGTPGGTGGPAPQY

T1: human EphB4 ephrin-binding domain, EphB4 (17-196) (human) (UniProt P54760)
T1 sequence: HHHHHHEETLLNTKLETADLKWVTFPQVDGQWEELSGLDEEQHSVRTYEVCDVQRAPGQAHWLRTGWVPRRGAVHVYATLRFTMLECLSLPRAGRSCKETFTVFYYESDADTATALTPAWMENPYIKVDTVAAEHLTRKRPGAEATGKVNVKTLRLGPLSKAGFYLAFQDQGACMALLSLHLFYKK

T2: mouse EphB4 ectodomain Fc fusion protein (mouse EphB4-Fc-His, R&D Systems) (mouse) (UniProt P54761)
T2 sequence (looked up): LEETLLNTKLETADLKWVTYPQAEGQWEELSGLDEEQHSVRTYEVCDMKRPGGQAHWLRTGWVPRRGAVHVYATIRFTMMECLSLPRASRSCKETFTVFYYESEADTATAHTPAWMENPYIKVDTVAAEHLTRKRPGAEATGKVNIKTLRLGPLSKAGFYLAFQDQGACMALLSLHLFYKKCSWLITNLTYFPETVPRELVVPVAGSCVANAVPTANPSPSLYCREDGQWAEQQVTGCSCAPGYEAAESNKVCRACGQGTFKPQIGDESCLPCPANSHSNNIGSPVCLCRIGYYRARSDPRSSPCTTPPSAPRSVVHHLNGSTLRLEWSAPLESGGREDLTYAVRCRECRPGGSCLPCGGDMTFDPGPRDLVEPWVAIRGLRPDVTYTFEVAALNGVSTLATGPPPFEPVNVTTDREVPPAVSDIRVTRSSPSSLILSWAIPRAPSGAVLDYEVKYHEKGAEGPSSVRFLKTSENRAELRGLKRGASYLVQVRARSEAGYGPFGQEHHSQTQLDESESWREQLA


What was measured:
[1] = biological target: T1, human EphB4 ephrin-binding domain, EphB4 (17-196) (human); assay: co-crystal structure at 1.65 Å
[2] = biological target: T2, mouse EphB4 ectodomain Fc fusion protein (mouse EphB4-Fc-His, R&D Systems) (mouse); assay: competition ELISA: inhibition of mouse ephrin-B2 AP binding to immobilized mouse EphB4 ectodomain Fc; same ELISA; the cell is a lower limit (>10 µM), not a finding of no binding

Row | Binder | binding [1] | binding [2]
1 | TNYLFSPNGPIARAW (Synthetic 15-mer (Biopeptide, Inc.); Peptide positions are printed as P1 to P15; also called antagonistic peptide) [TNYL-RAW peptide (TNYLFSPNGPIARAW)] | binds | –
2 | LFSPNGPIARAW (TNYL-RAW without Thr-P1, Asn-P2 and Tyr-P3) [LFSP-RAW peptide (LFSPNGPIARAW)] | – | no binding (tested: 10 µM)
